Data from patent US20250295795A1, “PEPTIDE” (priority 2021, published 2025).

The chains behind the UniProt entries cited, without tags or fusion partners. Where a name states a change or a piece, a line headed by the entry shows the natural chain unless it says otherwise.
UniProt P04608: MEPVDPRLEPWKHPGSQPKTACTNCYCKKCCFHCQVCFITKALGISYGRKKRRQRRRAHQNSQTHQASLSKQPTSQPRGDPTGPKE

What was measured:
[1] = system: rab5a-RFP; test: Co-localization of trimer with early endosomal marker rab5a-RFP in transfected Hela cells; assay type: cell-based, human; details: for co-localization analysis M1 / co-localization analysis M2 / co-localization analysis R: 1 μM, 15 min, pre-wash
[2] = system: HeLa cells; test: Time course of uptake in Hela cells (continuous live cell confocal microscopy, ROI profile analysis); assay type: cell-based, human; details: 1 μM; first 15 min
Protocol: To better understand the mechanism by which tri-Tat A and tri-cTat B enter the cytosol and the nucleus, we investigated the uptake kinetics of the conjugates during the first 15 min after their addition to Hela cells using confocal live cell microscopy. Tri-Tat A (FIG. 3a) or tri-cTat B (FIG. 3b) (1 μM) were added to the cells and images acquired from 1 min to 15 min at 60 sec intervals. The two trimers show distinct uptake patters into Hela cells; to better understand the difference in uptake kinetics, we drew cross sectional profile plots through representative cells treated with tri-Tat A (FIG. 3c) and tri-cTat B (FIG. 3d). […] To investigate whether findings in individual cells also apply to larger populations, we extended the plot profile analysis by designating regions of interest (ROI) corresponding to plasma membrane, cytosol (excluding endosomes), nucleus, and nucleoli along the cross section, using information from brightfield images.^30 Average fluorescence intensities for each ROI, at each time point, in six cells per treatment group were calculated and plotted in FIGS. 3e-3h.
HeLa and CHO cells were cultured in DMEM supplemented with 10% FBS and penicillin/streptomycin. […] Images were analysed using ImageJ software. […]

Compound	co-localization analysis M1 [1]	co-localization analysis M2 [1]	co-localization analysis R [1]	route / mechanism of cell entry [2]	nature of intracellular punctate/vesicular fluorescence by rab5a-RFP co-localization [1]
N=C(N)NCCC[C@H](NC(=O)[C@H](CCCNC(=N)N)NC(=O)[C@H](CCCNC(=N)N)NC(=O)[C@H](CCC(N)=O)NC(=O)[C@H](CCCNC(=N)N)NC(=O)[C@H](CCCNC(=N)N)NC(=O)[C@H](CCCCN)NC(=O)[C@H](CCCCN)NC(=O)[C@H](CCCNC(=N)N)NC(=O)CCCc1cn(CC(Cn2cc(CCCC(=O)N[C@@H](CCCNC(=N)N)C(=O)N[C@@H](CCCCN)C(=O)N[C@@H](CCCCN)C(=O)N[C@@H](CCCNC(=N)N)C(=O)N[C@@H](CCCNC(=N)N)C(=O)N[C@@H](CCC(N)=O)C(=O)N[C@@H](CCCNC(=N)N)C(=O)N[C@@H](CCCNC(=N)N)C(=O)N[C@@H](CCCNC(=N)N)C(N)=O)nn2)(Cn2cc(CCCC(=O)N[C@@H](CCCNC(=N)N)C(=O)N[C@@H](CCCCN)C(=O)N[C@@H](CCCCN)C(=O)N[C@@H](CCCNC(=N)N)C(=O)N[C@@H](CCCNC(=N)N)C(=O)N[C@@H](CCC(N)=O)C(=O)N[C@@H](CCCNC(=N)N)C(=O)N[C@@H](CCCNC(=N)N)C(=O)N[C@@H](CCCNC(=N)N)C(N)=O)nn2)Cn2cc(CNC(=O)c3ccc4c(c3)C(=O)OC43c4ccc(N)c(S(=O)(=O)O)c4Oc4c3ccc(N)c4S(=O)(=O)O)nn2)nn1)C(N)=O (stereo partly shown) [tri-Tat A]	0.1878	0.4714	0.264	translocates directly across the membrane	–
N=C(N)NCCC[C@@H]1NC(=O)[C@H](CCCNC(=N)N)NC(=O)[C@H](CCCNC(=N)N)NC(=O)[C@H](CCC(N)=O)NC(=O)[C@H](CCCNC(=N)N)NC(=O)[C@H](CCCNC(=N)N)NC(=O)[C@H](CCCCN)NC(=O)[C@H](CCCCN)NC(=O)[C@H](CCCNC(=N)N)NC(=O)[C@H](CCCCn2cc(COCC(COCc3cn(CCCCCCNC(=O)c4ccc5c(c4)C(=O)OC54c5ccc(N)c(S(=O)(=O)O)c5Oc5c4ccc(N)c5S(=O)(=O)O)nn3)(COCc3cn(CCCC[C@@H]4NC(=O)CC[C@@H](C(N)=O)NC(=O)[C@H](CCCNC(=N)N)NC(=O)[C@H](CCCNC(=N)N)NC(=O)[C@H](CCCNC(=N)N)NC(=O)[C@H](CCC(N)=O)NC(=O)[C@H](CCCNC(=N)N)NC(=O)[C@H](CCCNC(=N)N)NC(=O)[C@H](CCCCN)NC(=O)[C@H](CCCCN)NC(=O)[C@H](CCCNC(=N)N)NC4=O)nn3)COCc3cn(CCCC[C@@H]4NC(=O)CC[C@@H](C(N)=O)NC(=O)[C@H](CCCNC(=N)N)NC(=O)[C@H](CCCNC(=N)N)NC(=O)[C@H](CCCNC(=N)N)NC(=O)[C@H](CCC(N)=O)NC(=O)[C@H](CCCNC(=N)N)NC(=O)[C@H](CCCNC(=N)N)NC(=O)[C@H](CCCCN)NC(=O)[C@H](CCCCN)NC(=O)[C@H](CCCNC(=N)N)NC4=O)nn3)nn2)NC(=O)CC[C@@H](C(N)=O)NC1=O (stereo partly shown) [tri-cTat B]	0.7127	0.6757	0.474	formation of vesicle-like bodies followed by vesicular escape	vesicle-like structures are endosomes
tri-Tat B: AF488-labelled trimer of linear Tat (49-57) peptide on alkyne functionalized scaffold B (RKKRRQRRR; trimer on alkyne scaffold B; AF488 label; UniProt P04608 49-57, looked up, fragment)	0.5105	0.5191	0.242	–	endosomal entrapment
